The results are deposited in PubChem (AID504749; NCATS, 2011).

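Malaria parasite (P. falciparum) lines kept in red blood cells; parasite DNA is measured by SYBR Green fluorescence after lysis, 72 h after compound addition.
Each compound was titrated across a series from about 0.000037 to 29 µM.
The number is the fitted AC50, the concentration giving a half-maximal change in signal; a lower value means higher potency, whether the curve shows a decrease or an increase.
Calls follow the curve class and fit quality: every row here is inconclusive, covering signal-raising curves and weak, poorly fitted, partial or highest-dose-only inhibition curves.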

Values are in µM.
Every entry below has the call inconclusive.
These entries are mostly ones the record files as inconclusive; other results of the assay are not listed here.
Potencies fitted to partial, single-point or poorly fitting curves are rough.

Result for NC1=NC(=O)N2CC12 (stereo unspecified) [DIV17] was potency 12 µM (inhibitor, partial curve, poor fit).
Result for NC1=NC(=O)N2CC12 (stereo unspecified) [CP194] was potency 12 µM (inhibitor, partial curve, poor fit).
Result for NC1=NC(=O)N2CC12 (stereo unspecified) [P93_24] was potency 11.22 µM (inhibitor, single point).
Result for CC(=O)OCC(=O)[C@@]1(OC(C)=O)[C@@H](C)C[C@H]2[C@@H]3C[C@H](F)C4=CC(=O)C=C[C@]4(C)[C@@]3(F)[C@@H](O)C[C@@]21C [N140] was potency 11.22 µM (inhibitor, single point).
Result for CC(=O)OCC(=O)[C@@]1(OC(C)=O)[C@@H](C)C[C@H]2[C@@H]3C[C@H](F)C4=CC(=O)C=C[C@]4(C)[C@@]3(F)[C@@H](O)C[C@@]21C [parasite line B] was potency 11.22 µM (inhibitor, partial curve).
Result for CC(=O)OCC(=O)[C@@]1(OC(C)=O)[C@@H](C)C[C@H]2[C@@H]3C[C@H](F)C4=CC(=O)C=C[C@]4(C)[C@@]3(F)[C@@H](O)C[C@@]21C [GB4] was potency 19.01 µM (inhibitor, single point).
Result for CC(=O)OCC(=O)[C@@]1(OC(C)=O)[C@@H](C)C[C@H]2[C@@H]3C[C@H](F)C4=CC(=O)C=C[C@]4(C)[C@@]3(F)[C@@H](O)C[C@@]21C [DIV17] was potency 21.33 µM (inhibitor, single point).
Result for CC(=O)OCC(=O)[C@@]1(OC(C)=O)[C@@H](C)C[C@H]2[C@@H]3C[C@H](F)C4=CC(=O)C=C[C@]4(C)[C@@]3(F)[C@@H](O)C[C@@]21C [P94_40] was potency 11.22 µM (inhibitor, single point).
Result for CC(=O)OCC(=O)[C@@]1(OC(C)=O)[C@@H](C)C[C@H]2[C@@H]3C[C@H](F)C4=CC(=O)C=C[C@]4(C)[C@@]3(F)[C@@H](O)C[C@@]21C [TAB113] was potency 11.22 µM (inhibitor, single point).
Result for CC(=O)OCC(=O)[C@@]1(OC(C)=O)[C@@H](C)C[C@H]2[C@@H]3C[C@H](F)C4=CC(=O)C=C[C@]4(C)[C@@]3(F)[C@@H](O)C[C@@]21C [P93_24] was potency 12.59 µM (inhibitor, single point).
Result for CC(=O)OCC(=O)[C@@]1(OC(C)=O)[C@@H](C)C[C@H]2[C@@H]3C[C@H](F)C4=CC(=O)C=C[C@]4(C)[C@@]3(F)[C@@H](O)C[C@@]21C [DIV14] was potency 15.1 µM (inhibitor, single point).
Result for CC(=O)OCC(=O)[C@@]1(OC(C)=O)[C@@H](C)C[C@H]2[C@@H]3C[C@H](F)C4=CC(=O)C=C[C@]4(C)[C@@]3(F)[C@@H](O)C[C@@]21C [PAD] was potency 10 µM (inhibitor, single point).
Result for CC(=O)OCC(=O)[C@@]1(OC(C)=O)[C@@H](C)C[C@H]2[C@@H]3C[C@H](F)C4=CC(=O)C=C[C@]4(C)[C@@]3(F)[C@@H](O)C[C@@]21C [CP237] was potency 11.22 µM (inhibitor, single point).
Result for CC(=O)OCC(=O)[C@@]1(OC(C)=O)[C@@H](C)C[C@H]2[C@@H]3C[C@H](F)C4=CC(=O)C=C[C@]4(C)[C@@]3(F)[C@@H](O)C[C@@]21C [ATS95] was potency 11.22 µM (inhibitor, single point).
Result for CC(=O)OCC(=O)[C@@]1(OC(C)=O)[C@@H](C)C[C@H]2[C@@H]3C[C@H](F)C4=CC(=O)C=C[C@]4(C)[C@@]3(F)[C@@H](O)C[C@@]21C [CP215] was potency 21.33 µM (inhibitor, partial curve, poor fit).
Result for CC(=O)OCC(=O)[C@@]1(OC(C)=O)[C@@H](C)C[C@H]2[C@@H]3C[C@H](F)C4=CC(=O)C=C[C@]4(C)[C@@]3(F)[C@@H](O)C[C@@]21C [CP265] was potency 17.78 µM (inhibitor, single point).
Result for N[C@@H](Cc1ccc(N(CCCl)CCCl)cc1)C(=O)O [CP252] was potency 17.78 µM (inhibitor, single point).
Result for N[C@@H](Cc1ccc(N(CCCl)CCCl)cc1)C(=O)O [PC15] was potency 10 µM (inhibitor, single point).
Result for N[C@@H](Cc1ccc(N(CCCl)CCCl)cc1)C(=O)O [AS120] was potency 11.22 µM (inhibitor, single point).
Result for N[C@@H](Cc1ccc(N(CCCl)CCCl)cc1)C(=O)O [CP238] was potency 11.22 µM (inhibitor, single point).
Result for N[C@@H](Cc1ccc(N(CCCl)CCCl)cc1)C(=O)O [HB3] was potency 12.59 µM (inhibitor, single point).
Result for N[C@@H](Cc1ccc(N(CCCl)CCCl)cc1)C(=O)O [ATS189] was potency 12.59 µM (inhibitor, single point).
Result for N[C@@H](Cc1ccc(N(CCCl)CCCl)cc1)C(=O)O [P93_24] was potency 12.59 µM (inhibitor, single point).
Result for N[C@@H](Cc1ccc(N(CCCl)CCCl)cc1)C(=O)O [PAD] was potency 17.78 µM (inhibitor, single point).
Result for N[C@@H](Cc1ccc(N(CCCl)CCCl)cc1)C(=O)O [ATS95] was potency 11.22 µM (inhibitor, single point).
Result for N[C@@H](Cc1ccc(N(CCCl)CCCl)cc1)C(=O)O [ICS] was potency 11.22 µM (inhibitor, single point).
Result for N[C@@H](Cc1ccc(N(CCCl)CCCl)cc1)C(=O)O [CP247] was potency 10 µM (inhibitor, single point).
Result for N[C@@H](Cc1ccc(N(CCCl)CCCl)cc1)C(=O)O [N140] was potency 11.22 µM (inhibitor, single point).

Some entries from above, unchanged:

Compound,setting,potency (µM),curve
CC(=O)OCC(=O)[C@@]1(OC(C)=O)[C@@H](C)C[C@H]2[C@@H]3C[C@H](F)C4=CC(=O)C=C[C@]4(C)[C@@]3(F)[C@@H](O)C[C@@]21C,ATS95,11.22,"inhibitor, single point"
N[C@@H](Cc1ccc(N(CCCl)CCCl)cc1)C(=O)O,CP238,11.22,"inhibitor, single point"
CC(=O)OCC(=O)[C@@]1(OC(C)=O)[C@@H](C)C[C@H]2[C@@H]3C[C@H](F)C4=CC(=O)C=C[C@]4(C)[C@@]3(F)[C@@H](O)C[C@@]21C,P93_24,12.59,"inhibitor, single point"